Reference: publication PMC7939381, “MMP activation–associated aminopeptidase N reveals a bivalent 14-3-3 binding motif” (The Journal of Biological Chemistry, 2021)
These are yes or no findings as the source states them, for the method shown. In cells and extracts the contact can be indirect. Some results given as binding are weak or reduced against the parent protein; the word gives no strength.

By UniProt entry, the sequences of proteins in these tests, tags left out.
UniProt P31946: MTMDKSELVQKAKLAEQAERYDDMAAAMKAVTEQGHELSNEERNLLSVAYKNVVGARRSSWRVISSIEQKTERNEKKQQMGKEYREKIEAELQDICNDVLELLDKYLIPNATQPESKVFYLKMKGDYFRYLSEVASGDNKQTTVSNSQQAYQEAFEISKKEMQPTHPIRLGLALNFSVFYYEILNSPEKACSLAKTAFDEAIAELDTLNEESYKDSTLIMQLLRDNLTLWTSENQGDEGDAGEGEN

Experiments:
[1] = molecular target: T1, biotinylated peptide 1, APN 38–46 pSer43 (human); experiment: pull-down; biotinylated peptide on streptavidin Sepharose beads, incubated 120 min in lysate of E. coli overexpressing His6-14-3-3; 50 mM HEPES pH 7.4, 250 mM NaCl, 20 mM MgCl2; SDS-PAGE, NTA-Atto488 and Coomassie stain; only the target purified
T1 sequence (peptide, phosphoserine at 43 (NKNANpSSPV); biotin via a PEG4 linker): NKNANSSPV

[2] = molecular target: T2, biotinylated peptide 6, APN 39–47 pSer44 (human); experiment: as above
T2 sequence (peptide, phosphoserine at 44 (KNANSpSPVA); biotin via a PEG4 linker): KNANSSPVA

“14-3-3β/α, full length, N-terminally His6-tagged (from UniProt P31946 1-246)” was tested, and the binding [1] was “binds” and the binding [2] was “no binding”.
